For this assay, the target named is T1, TNF receptor I (TNFR1) (mouse (endogenous in L929)) (UniProt P25118).
T1 sequence: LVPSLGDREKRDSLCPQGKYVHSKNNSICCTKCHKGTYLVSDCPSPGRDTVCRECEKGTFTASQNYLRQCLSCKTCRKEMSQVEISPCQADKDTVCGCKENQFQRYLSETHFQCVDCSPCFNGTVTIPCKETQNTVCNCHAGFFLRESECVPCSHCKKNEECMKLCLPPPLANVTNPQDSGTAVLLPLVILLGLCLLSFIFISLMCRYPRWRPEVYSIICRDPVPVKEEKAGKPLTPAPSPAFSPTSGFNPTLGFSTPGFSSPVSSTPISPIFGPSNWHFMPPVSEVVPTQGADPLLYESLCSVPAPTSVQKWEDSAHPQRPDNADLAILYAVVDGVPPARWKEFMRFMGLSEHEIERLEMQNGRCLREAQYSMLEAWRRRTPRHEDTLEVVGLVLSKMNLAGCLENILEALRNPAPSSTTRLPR
The assay can be described thus: co-IP; L929 cells treated with TNF (15 ng/mL) for 5 or 15 min without or with WETC (0.4 mg/mL); extracts in M2 buffer (20 mM Tris pH 7.6, 0.5% NP-40, 250 mM NaCl) precipitated with anti-TNFR1 or anti-IKK-γ antibodies and protein G-A agarose overnight at 4 °C; immunoblot.

Drawing on PMC4846877, this text covers binding for one molecule.

These are yes or no findings as the source states them, for the method shown. In cells and extracts the contact can be indirect. Some binding calls cover weakened binding; strength is not graded here.

B1: TRADD (protein, UniProt Q3U0V2 1-310)
chain: MAAGQNGHEEWVGSAYLFLESAVDKVILSEAYTDPKKKVAIYKALQTALSESGDSSDVLQILKIHCSDPQLIVQLRFCGRVLCGRFLQAYREGALRTALQRCMAPALAQEALRLQLELRAGAEQLDSWLTDEERCLNYILAQKPDRLRDEELAELEDELCKLTCDCTGQGGAIQVASAGSKFPVSSPTEEKPLPAACQTFLFHGQLVVNRPLTLQDQQTFARSVGLKWRRVGRSLQRNCRALRDPALDSLAYEYERDGLYEQAFQLLRRFMQAEGRRATLQRLVEALEENELTSLAEDLLGQAEPDGGLA
In the case of B1, the binding result was “binds”.
